Results on two molecules are retold here after paper PMC3663837.

The target of test [1] is SUMO-StPTB6 (Solanum tuberosum (potato)). The test can be described thus: ELISA; phage ELISA of clones of a random 21-mer phage peptide library after four rounds of panning against StPTB1 or StPTB6; only the target purified.
The target of test [2] is SUMO-StPTB1 (Solanum tuberosum (potato)). The test is described as above.

Results are given in words; binding and its absence hold for the method and conditions named. A result given as binding can be weak or reduced; the word gives no strength.

In the case of VNVQRYRMDGVLGPWPGYNLE, the binding entry in test [1] is listed as “binds”. In the case of LYNSMPSILGVWRPSTSRFPD, the binding result in test [2] was “binds”.
